For at least one compound, name, drawing or mass did not settle the structure.
Test system: ADH T
Assay: Relative activities of purified ADH T in the reduction of different substrates
Assay type: biochemical, Thermoanaerobacter species
Conditions: substrate 10 mM, activity with acetone set at 100%

Compound: CC(=O)C(=O)O [Pyruvate]
- Relative activity: 2%
